Construct, isoform or probe ends are uncertain for at least one entry. For some of these results: Weaker means in comparison with the reference protein, sequence or condition of that experiment. For some of these results: At least one verdict was read from the data and is not stated in words by the source.
Tests used:
[1] = target: ATHP2 (AT-hook peptide 2) (UniProt P52926); experiment: MS-CID-MS; settings: 1:1 complex, [M+4H]4+, weakest of the three; residues 45-53; folded or branched DNA
[2] = target: ATHP2 (AT-hook peptide 2) (UniProt P52926); experiment: native IMS-MS; settings: 1:1 and 2:1 complexes; residues 45-53; folded or branched DNA
[3] = target: ATHP1 (AT-hook peptide 1) (UniProt P52926); experiment: native IMS-MS; settings: 1:1 and 2:1 complexes; residues 26-34; folded or branched DNA
[4] = target: ATHP3 (AT-hook peptide 3) (UniProt P52926); experiment: native IMS-MS; settings: 1:1 and 2:1 complexes; residues 74-83; folded or branched DNA

Sequences of proteins named here, by UniProt entry; tags and fusion partners are left off.
UniProt P52926, whole entry, looked up, tested part not stated: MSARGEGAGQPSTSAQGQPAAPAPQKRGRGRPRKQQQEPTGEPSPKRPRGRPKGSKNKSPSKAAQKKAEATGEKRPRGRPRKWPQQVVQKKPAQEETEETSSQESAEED

GGATATTGCCCCCGCAATATCC [FL876]: binds more weakly [1].
GGATATTGCCTCCGCAATATCC [FL876T1]: binds [2]; binds [3]; binds [4].
GGATATTGCCTTCGCAATATCC [FL876T2]: binds [2]; binds [3]; binds [4].

— paper PMC8934665, “AT-hook peptides bind the major and minor groove of AT-rich DNA duplexes”
